Values from PubChem BioAssay AID1259425 (University of Nebraska Medical Center, 2018)

Screen: 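Seek colon cancer weak points whose silencing resembles KSR1 loss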 (primary screen)
Cell system: HCT116 human colon cancer cells
Knock-down reagent: siRNA pool against human genes, 50 nM siRNA
Read-out: 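mRNA of six signature genes measured together by branched-DNA assay after 50 nM siRNA pool, blank removed, divided by geometric mean of two housekeeping genes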
Reading the numbers: BNIP3L mRNA: higher = more BNIP3L transcript after knockdown
The deposit covers about 14,000 reagents; below is a part drawn at random. Not all columns of the deposit are shown. Not stated in the record: the time to read-out.

Gene	BNIP3L mRNA, set 1
TERF2IP	0.0374
KCNA2	0.15
PSEN1	0.0777
AGPAT4-IT1	0.199
LHX9	0.196
FSD1L	0.197
CST4	0.171
CCDC177	0.0812
CTNNA2	0.12
RANBP10	0.0415
ARMC2	0.307
UGT1A8	0.137
SETD1A	0.0811
TBL3	0.148
UCKL1	0.198
CKAP4	0.154

Reprinted from above (5 entries):
Gene	BNIP3L mRNA, set 1
FSD1L	0.197
CST4	0.171
CCDC177	0.0812
CTNNA2	0.12
RANBP10	0.0415

The results go on:
Gene	BNIP3L mRNA, set 1
EDARADD	0.0783
CASP14	0.0778
C14orf132	0.13
OR2S2	0.117
MS4A7	0.109
TANC2	0.132
TCTN2	0.114
CEP44	0.101
FUZ	0.497
H3C12	0.0768
AVIL	0.117
GABBR1	0.132
PPM1H	0.105
OR1Q1	0.229
HEATR5B	0.0827
AKR1B1	0.0463
TP53TG1	0.0816
COASY	0.339
